PMC10623882
Results are given in words; binding and its absence hold for the method and conditions named. In cells and extracts the contact can be indirect. Some entries that bind do so weakly or less than the wild type.

Molecular target: p65 (RelA) (human (endogenous in MDA-MB-231)), Q04206
Test: co-IP; lysate of mammospheres derived from MDA-MB-231 cells incubated with RelB antibody or corresponding IgG, Protein A/G-agarose, immunoprecipitates blotted with p65 or p50; also the IP of p65
Conditions: remark: other sources report otherwise

B1: RelB, Q01201 1-579 (protein)
chain: MLRSGPASGPSVPTGRAMPSRRVARPPAAPELGALGSPDLSSLSLAVSRSTDELEIIDEYIKENGFGLDGGQPGPGEGLPRLVSRGAASLSTVTLGPVAPPATPPPWGCPLGRLVSPAPGPGPQPHLVITEQPKQRGMRFRYECEGRSAGSILGESSTEASKTLPAIELRDCGGLREVEVTACLVWKDWPHRVHPHSLVGKDCTDGICRVRLRPHVSPRHSFNNLGIQCVRKKEIEAAIERKIQLGIDPYNAGSLKNHQEVDMNVVRICFQASYRDQQGQMRRMDPVLSEPVYDKKSTNTSELRICRINKESGPCTGGEELYLLCDKVQKEDISVVFSRASWEGRADFSQADVHRQIAIVFKTPPYEDLEIVEPVTVNVFLQRLTDGVCSEPLPFTYLPRDHDSYGVDKKRKRGMPDVLGELNSSDPHGIESKRRKKKPAILDHFLPNHGSGPFLPPSALLPDPDFFSGTVSLPGLEPPGGPDLLDDGFAYDPTAPTLFTMLDLLPPAPPHASAVVCSGGAGAVVGETPGPEPLTLDSYQAPGPGDGGTASLVGSNMFPNHYREAAFGGGLLSPGPEAT
- binding: binds
